Experimental data published in the supplement of paper PMC6411743.
± gives the standard deviation of the averaged measurements. Only a part is listed here, and it is no random draw.

Protein sequences, listed by entry. Tags and fused reporters are not part of them. Lines headed by an entry give the natural chain unless they say otherwise; changes in a name come on top.
UniProt O15305: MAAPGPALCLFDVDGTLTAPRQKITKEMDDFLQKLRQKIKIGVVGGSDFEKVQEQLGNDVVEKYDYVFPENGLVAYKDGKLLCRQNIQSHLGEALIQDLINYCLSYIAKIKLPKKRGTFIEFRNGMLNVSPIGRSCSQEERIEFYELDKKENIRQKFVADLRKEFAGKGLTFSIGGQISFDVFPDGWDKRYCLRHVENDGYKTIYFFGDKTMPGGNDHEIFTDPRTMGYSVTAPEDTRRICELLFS
UniProt O43709: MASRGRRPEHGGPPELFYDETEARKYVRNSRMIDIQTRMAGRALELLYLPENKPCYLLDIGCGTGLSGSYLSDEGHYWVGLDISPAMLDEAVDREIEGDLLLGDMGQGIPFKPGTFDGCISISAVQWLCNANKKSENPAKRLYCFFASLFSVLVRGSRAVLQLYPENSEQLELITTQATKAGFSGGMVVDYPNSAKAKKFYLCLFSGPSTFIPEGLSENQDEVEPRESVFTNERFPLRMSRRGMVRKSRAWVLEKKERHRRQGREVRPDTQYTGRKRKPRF
UniProt O14818: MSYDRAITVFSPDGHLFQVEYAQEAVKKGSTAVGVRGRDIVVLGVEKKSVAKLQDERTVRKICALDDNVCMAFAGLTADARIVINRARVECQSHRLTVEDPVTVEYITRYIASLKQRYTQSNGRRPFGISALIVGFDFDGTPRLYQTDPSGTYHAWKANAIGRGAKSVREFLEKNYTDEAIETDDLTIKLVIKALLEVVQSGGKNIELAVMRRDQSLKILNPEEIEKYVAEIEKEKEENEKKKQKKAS
UniProt O15260: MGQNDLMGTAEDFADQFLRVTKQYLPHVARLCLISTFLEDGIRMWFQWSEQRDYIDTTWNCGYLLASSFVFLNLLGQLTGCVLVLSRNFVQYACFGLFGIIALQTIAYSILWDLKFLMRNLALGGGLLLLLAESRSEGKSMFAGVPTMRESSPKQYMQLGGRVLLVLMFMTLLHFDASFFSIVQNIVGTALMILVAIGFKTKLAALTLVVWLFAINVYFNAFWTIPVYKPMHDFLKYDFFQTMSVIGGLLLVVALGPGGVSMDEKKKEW
UniProt O95707: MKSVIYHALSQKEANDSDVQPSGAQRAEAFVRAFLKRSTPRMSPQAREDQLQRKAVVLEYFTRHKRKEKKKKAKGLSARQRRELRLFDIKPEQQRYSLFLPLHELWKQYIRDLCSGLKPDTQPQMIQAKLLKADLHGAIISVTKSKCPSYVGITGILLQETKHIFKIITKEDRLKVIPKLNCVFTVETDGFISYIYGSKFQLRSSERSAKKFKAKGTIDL
UniProt Q8IV63: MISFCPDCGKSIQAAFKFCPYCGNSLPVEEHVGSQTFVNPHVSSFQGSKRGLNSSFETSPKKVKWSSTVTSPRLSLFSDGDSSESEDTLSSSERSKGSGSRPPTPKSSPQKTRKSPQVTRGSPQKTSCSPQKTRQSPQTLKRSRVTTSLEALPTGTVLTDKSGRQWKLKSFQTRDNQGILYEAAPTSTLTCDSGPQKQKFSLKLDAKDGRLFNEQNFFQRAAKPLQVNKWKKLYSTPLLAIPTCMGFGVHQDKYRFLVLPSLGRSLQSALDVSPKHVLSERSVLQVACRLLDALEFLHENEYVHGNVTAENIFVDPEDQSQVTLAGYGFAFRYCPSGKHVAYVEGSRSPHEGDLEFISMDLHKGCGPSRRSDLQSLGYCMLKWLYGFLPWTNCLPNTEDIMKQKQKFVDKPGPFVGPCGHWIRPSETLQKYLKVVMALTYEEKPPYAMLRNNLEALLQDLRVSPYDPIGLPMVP
UniProt O15212, whole entry: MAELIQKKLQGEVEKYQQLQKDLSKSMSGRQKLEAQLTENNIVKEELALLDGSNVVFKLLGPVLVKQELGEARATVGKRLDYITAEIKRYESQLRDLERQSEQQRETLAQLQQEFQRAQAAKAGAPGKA
UniProt O00628: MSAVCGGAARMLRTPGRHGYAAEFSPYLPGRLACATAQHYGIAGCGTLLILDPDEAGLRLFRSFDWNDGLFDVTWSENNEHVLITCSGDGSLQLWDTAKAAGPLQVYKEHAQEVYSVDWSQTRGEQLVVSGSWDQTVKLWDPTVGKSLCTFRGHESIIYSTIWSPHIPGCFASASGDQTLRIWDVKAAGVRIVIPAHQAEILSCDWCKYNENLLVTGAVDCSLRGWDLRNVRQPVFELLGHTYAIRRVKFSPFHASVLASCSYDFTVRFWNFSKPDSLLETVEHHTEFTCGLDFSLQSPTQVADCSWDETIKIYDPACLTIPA
UniProt O43813, whole entry: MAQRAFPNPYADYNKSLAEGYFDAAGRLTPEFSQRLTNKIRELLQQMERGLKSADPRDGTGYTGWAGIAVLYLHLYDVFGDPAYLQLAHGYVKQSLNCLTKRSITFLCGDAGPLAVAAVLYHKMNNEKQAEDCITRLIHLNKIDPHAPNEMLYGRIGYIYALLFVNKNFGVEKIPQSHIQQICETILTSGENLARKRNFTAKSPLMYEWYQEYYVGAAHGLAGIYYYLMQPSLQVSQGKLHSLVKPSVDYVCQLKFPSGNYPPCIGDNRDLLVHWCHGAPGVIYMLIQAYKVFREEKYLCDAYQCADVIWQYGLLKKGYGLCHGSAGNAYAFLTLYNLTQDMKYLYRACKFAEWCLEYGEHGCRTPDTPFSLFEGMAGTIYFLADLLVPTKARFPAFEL
UniProt O00273: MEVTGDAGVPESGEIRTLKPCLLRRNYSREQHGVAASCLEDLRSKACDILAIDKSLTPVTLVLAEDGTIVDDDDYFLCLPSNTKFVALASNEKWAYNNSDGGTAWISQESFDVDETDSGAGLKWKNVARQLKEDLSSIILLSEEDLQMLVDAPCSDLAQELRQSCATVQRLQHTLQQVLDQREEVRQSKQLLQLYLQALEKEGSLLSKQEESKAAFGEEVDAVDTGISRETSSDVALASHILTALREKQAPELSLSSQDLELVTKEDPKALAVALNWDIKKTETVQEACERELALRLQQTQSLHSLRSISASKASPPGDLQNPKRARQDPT
UniProt O00165, whole entry: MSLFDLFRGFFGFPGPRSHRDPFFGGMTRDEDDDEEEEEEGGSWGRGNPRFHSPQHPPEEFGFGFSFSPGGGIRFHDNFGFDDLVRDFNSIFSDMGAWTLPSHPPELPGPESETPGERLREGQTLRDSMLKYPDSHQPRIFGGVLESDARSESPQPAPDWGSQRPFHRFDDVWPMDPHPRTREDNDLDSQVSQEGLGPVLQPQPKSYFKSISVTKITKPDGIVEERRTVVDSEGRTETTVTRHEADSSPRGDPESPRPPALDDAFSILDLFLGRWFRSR
UniProt Q14653: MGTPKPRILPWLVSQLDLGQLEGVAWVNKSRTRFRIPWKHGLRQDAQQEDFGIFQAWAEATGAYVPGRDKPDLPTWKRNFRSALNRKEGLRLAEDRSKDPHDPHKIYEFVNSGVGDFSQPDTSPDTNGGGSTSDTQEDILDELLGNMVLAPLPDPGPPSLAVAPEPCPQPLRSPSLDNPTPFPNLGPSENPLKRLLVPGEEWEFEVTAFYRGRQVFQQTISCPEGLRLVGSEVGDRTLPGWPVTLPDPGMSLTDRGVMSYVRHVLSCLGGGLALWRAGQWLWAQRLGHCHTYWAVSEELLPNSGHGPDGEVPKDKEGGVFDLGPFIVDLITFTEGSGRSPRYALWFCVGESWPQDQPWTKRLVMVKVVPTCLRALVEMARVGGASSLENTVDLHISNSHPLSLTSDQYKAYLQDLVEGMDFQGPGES
UniProt O14776: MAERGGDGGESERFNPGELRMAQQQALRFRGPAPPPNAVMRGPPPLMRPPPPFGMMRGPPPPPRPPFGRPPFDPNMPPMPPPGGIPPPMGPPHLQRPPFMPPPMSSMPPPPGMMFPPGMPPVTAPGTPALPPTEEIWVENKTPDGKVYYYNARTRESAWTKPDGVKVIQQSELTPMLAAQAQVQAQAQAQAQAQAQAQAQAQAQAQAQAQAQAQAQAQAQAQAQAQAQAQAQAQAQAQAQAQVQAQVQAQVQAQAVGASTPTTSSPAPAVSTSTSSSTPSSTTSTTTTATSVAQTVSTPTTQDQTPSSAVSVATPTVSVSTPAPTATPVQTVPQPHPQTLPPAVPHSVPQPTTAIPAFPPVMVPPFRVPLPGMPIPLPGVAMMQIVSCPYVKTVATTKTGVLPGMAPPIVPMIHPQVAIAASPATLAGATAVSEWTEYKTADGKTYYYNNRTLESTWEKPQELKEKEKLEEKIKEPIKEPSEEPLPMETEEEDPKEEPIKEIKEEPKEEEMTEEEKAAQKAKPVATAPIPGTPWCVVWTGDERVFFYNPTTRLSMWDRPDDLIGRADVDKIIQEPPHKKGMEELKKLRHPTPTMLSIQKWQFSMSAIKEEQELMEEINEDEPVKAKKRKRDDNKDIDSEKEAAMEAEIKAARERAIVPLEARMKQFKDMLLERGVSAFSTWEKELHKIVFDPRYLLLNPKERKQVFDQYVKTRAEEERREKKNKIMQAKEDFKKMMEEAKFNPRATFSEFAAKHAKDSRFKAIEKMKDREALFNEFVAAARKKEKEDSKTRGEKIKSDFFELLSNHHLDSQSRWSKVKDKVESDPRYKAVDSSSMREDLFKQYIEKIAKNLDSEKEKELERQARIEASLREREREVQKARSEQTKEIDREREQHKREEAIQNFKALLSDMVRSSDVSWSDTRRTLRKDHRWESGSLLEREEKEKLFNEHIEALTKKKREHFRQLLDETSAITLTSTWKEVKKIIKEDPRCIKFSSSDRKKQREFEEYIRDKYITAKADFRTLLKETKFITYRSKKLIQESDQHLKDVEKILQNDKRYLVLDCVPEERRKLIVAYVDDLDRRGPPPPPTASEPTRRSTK
UniProt O14929: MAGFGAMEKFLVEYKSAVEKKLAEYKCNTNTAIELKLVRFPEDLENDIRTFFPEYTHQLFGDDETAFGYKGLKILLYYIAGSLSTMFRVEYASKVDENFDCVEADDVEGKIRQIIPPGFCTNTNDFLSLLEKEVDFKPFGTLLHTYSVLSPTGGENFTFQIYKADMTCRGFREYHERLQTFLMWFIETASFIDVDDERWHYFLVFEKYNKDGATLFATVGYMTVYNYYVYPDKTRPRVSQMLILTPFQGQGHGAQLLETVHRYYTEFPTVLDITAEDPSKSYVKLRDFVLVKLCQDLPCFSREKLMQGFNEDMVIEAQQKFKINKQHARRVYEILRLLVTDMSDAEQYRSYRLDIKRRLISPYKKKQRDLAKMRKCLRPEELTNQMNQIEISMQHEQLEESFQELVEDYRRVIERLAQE
UniProt O15116: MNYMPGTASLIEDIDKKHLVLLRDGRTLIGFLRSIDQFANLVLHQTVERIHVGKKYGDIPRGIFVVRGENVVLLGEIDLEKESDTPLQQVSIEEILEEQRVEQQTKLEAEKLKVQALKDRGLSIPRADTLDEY
UniProt O43293: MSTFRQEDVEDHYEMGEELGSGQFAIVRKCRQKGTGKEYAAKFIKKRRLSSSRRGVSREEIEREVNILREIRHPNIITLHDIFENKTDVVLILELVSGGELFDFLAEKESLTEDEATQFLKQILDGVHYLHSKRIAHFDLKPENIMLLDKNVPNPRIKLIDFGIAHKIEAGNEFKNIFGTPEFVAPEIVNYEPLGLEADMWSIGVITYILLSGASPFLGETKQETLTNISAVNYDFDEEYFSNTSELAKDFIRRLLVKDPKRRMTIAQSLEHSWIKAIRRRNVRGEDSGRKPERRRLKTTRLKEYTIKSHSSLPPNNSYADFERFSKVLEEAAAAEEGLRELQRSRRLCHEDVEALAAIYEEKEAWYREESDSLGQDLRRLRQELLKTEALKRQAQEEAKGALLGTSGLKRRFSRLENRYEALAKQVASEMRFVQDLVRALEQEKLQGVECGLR
UniProt O15234, whole entry: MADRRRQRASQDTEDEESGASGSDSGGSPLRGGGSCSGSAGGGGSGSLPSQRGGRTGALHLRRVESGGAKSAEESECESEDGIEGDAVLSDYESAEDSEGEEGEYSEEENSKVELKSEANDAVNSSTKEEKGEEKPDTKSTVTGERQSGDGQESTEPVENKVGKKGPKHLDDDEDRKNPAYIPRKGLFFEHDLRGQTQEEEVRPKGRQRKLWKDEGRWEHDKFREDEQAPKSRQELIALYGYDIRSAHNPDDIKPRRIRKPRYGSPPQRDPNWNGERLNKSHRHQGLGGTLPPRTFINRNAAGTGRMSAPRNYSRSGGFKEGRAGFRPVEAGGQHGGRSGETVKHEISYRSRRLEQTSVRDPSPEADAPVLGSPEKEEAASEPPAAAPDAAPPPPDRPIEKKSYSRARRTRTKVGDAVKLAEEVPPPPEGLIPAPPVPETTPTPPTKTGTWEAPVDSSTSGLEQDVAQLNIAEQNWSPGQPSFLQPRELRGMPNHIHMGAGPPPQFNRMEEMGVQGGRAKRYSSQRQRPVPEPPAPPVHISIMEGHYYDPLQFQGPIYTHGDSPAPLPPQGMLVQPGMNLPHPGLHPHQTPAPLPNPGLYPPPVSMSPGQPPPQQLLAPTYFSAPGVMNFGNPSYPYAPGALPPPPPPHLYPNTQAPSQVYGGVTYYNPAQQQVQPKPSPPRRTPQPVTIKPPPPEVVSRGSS
UniProt O15525: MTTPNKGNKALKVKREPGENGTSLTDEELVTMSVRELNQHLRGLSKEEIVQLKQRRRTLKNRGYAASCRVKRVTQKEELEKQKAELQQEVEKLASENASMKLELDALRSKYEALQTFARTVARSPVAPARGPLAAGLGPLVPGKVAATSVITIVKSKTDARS

Compound: Nc1ncnc2c1ncn2[C@@H]1O[C@H](COP(=O)(O)OP(=O)(O)NP(=O)(O)O)[C@@H](O)[C@H]1O [adenylyl imidodiphosphate]
Assay: NP40-soluble protein abundance relative to vehicle (solubility fold change) (ratio); higher = more soluble protein in presence of AMP-PNP
Method in brief: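 Crude Jurkat lysate, prepared by Dounce homogenisation, was exposed to eight concentrations from 0.1 to 10 mM for 10 min at room temperature and then 3 min at 37 °C. Solubilisation used 0.8% NP40 with benzonase for 60 min at 4 °C, followed by ultracentrifugation and TMT labelling of the supernatant for LC-MS/MS. After vsn normalisation of intensities, each value is the fold change against the detergent-processed vehicle within each replicate, across three independent experiments.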

Target	NP40-soluble protein abundance (concentration: 1mM)	NP40-soluble protein abundance (concentration: 2mM)	NP40-soluble protein abundance (concentration: 4mM)	NP40-soluble protein abundance (concentration: 6mM)	NP40-soluble protein abundance (concentration: 8mM)	NP40-soluble protein abundance (concentration: 10mM)
UniProt O00522 and related entries	1.01 ± 0.036	0.979 ± 0.064	0.994 ± 0.064	0.967 ± 0.033	0.985 ± 0.037	0.987 ± 0.059
MRPS12 (UniProt O15235)	0.946 ± 0.068	0.896 ± 0.069	0.945 ± 0.14	1.01 ± 0.1	1.01 ± 0.14	1.05 ± 0.25
MPHOSPH10 (UniProt O00566)	0.974 ± 0.027	1.07 ± 0.14	0.997 ± 0.089	1.12 ± 0.096	1.06 ± 0.086	1.11 ± 0.13
PMM2 (UniProt O15305)	1.02 ± 0.027	0.98 ± 0.078	0.981 ± 0.041	0.972 ± 0.029	0.961 ± 0.026	0.948 ± 0.072
OPLAH (UniProt O14841)	0.989 ± 0.026	0.988 ± 0.014	1.01 ± 0.021	0.9972 ± 0.0098	0.982 ± 0.018	0.997 ± 0.017
K7ELE3 and related entries (UniProt Q08117)	0.974 ± 0.074	0.996 ± 0.033	0.989 ± 0.081	0.973 ± 0.046	0.946 ± 0.053	0.961 ± 0.053
UniProt O43709 and related entries	1.06 ± 0.024	1.12 ± 0.026	1.11 ± 0.038	1.09 ± 0.026	1.12 ± 0.018	1.18 ± 0.023
UniProt O43296	0.997 ± 0.018	0.956 ± 0.017	0.957 ± 0.007	0.954 ± 0.021	0.953 ± 0.03	0.947 ± 0.034
UniProt O14818 and related entries	0.909 ± 0.032	0.88 ± 0.048	0.876 ± 0.064	0.928 ± 0.037	0.913 ± 0.073	0.936 ± 0.11
UniProt O00148	0.966 ± 0.038	0.903 ± 0.064	0.9432 ± 0.0072	0.981 ± 0.037	0.996 ± 0.022	0.9943 ± 0.0093
UniProt O15260 and related entries	0.991 ± 0.028	0.982 ± 0.022	0.974 ± 0.031	0.966 ± 0.037	0.976 ± 0.011	0.983 ± 0.022
EIF3F (UniProt O00303)	1.01 ± 0.018	1.01 ± 0.048	1.04 ± 0.058	1.11 ± 0.043	1.15 ± 0.049	1.2 ± 0.079
K7EQV2 and related entries (UniProt O95707)	0.957 ± 0.023	0.905 ± 0.055	0.978 ± 0.095	0.984 ± 0.042	1.04 ± 0.069	0.995 ± 0.096
M0QYA8 and related entries (UniProt Q8IV63)	1.06 ± 0.016	1.09 ± 0.024	1.13 ± 0.017	1.18 ± 0.043	1.23 ± 0.07	1.25 ± 0.075
PSMD12 (UniProt O00232)	0.924 ± 0.026	0.894 ± 0.04	0.932 ± 0.088	0.985 ± 0.059	0.986 ± 0.076	1.01 ± 0.13
POLRMT (UniProt O00411)	1.01 ± 0.018	1.01 ± 0.012	0.988 ± 0.015	0.89 ± 0.053	0.883 ± 0.011	0.879 ± 0.022
UniProt O15439 and related entries	0.976 ± 0.074	0.994 ± 0.053	1 ± 0.072	0.981 ± 0.034	0.963 ± 0.02	0.974 ± 0.032
PFDN6 (UniProt O15212)	0.952 ± 0.029	0.976 ± 0.055	0.905 ± 0.029	0.892 ± 0.039	0.86 ± 0.018	0.85 ± 0.04
CBX4 (UniProt O00257)	1.01 ± 0.02	1.01 ± 0.021	1.01 ± 0.022	1 ± 0.027	1.02 ± 0.013	1.08 ± 0.031
UniProt O00628 and related entries	0.989 ± 0.019	0.949 ± 0.071	0.947 ± 0.026	0.959 ± 0.027	0.97 ± 0.035	0.94 ± 0.022
UniProt O43813 and related entries	0.945 ± 0.034	0.901 ± 0.038	0.962 ± 0.025	0.996 ± 0.059	1.02 ± 0.033	0.9804 ± 0.0073
K7ERT1 and related entries (UniProt O00273)	1.04 ± 0.043	1.01 ± 0.03	1.01 ± 0.072	0.984 ± 0.019	0.995 ± 0.065	0.969 ± 0.06
UniProt O00165 and related entries	0.973 ± 0.028	0.942 ± 0.037	0.965 ± 0.063	0.932 ± 0.087	0.906 ± 0.045	0.926 ± 0.073
M0QYT9 and related entries (UniProt Q14653)	0.988 ± 0.049	0.972 ± 0.016	0.997 ± 0.02	1.01 ± 0.057	1.04 ± 0.055	0.985 ± 0.035
UniProt O14776 and related entries	1.01 ± 0.042	1.05 ± 0.061	1.03 ± 0.045	1.1 ± 0.028	1.08 ± 0.038	1.11 ± 0.051
HAT1 (UniProt O14929)	1 ± 0.062	0.918 ± 0.031	1.02 ± 0.073	1.02 ± 0.096	1.09 ± 0.075	1.01 ± 0.086
LSM1 (UniProt O15116)	0.913 ± 0.018	0.961 ± 0.041	0.921 ± 0.0096	0.918 ± 0.023	0.907 ± 0.011	0.897 ± 0.024
DAPK3 (UniProt O43293)	0.987 ± 0.012	0.9883 ± 0.006	0.982 ± 0.026	1.01 ± 0.021	0.999 ± 0.018	1 ± 0.025
UniProt O15234 and related entries	1.06 ± 0.021	1.08 ± 0.032	1.04 ± 0.034	1 ± 0.04	0.981 ± 0.023	0.965 ± 0.014
MAFG (UniProt O15525)	0.96 ± 0.048	0.972 ± 0.037	0.95 ± 0.018	1.01 ± 0.078	0.99 ± 0.03	1 ± 0.025

Single entries from the results shown.
For NP40-soluble protein abundance (concentration: 6mM), CBX4 (UniProt O00257) shows 1 ± 0.027
For NP40-soluble protein abundance (concentration: 4mM), UniProt O00165 and related entries shows 0.965 ± 0.063
